This passage reports conjugation yield, crude mass and crude yield results from patent US20040014131A1 (Pfizer Inc., priority 2002, published 2004).

The data set can be described thus: general procedure: Fmoc solid-phase peptide synthesis; FMOC-PAL-PEG-PS resin; HBTU.

As to “5-carboxyfluorescein-Gly-Gly-dPhe-Leu-Arg-Arg-Val-Cys(5-(and 6)tetramethylrhodamine)-βAla-NH2”, the conjugation yield (conjugation step) came out at 8%.
As to “5-carboxyfluorescein-Gly-Gly-dPhe-Leu-Arg-Arg-Val-Cys(H)-βAla-NH2”, the crude mass (whole synthesis) is 50 mg. For the same substance, the crude yield (whole synthesis, scale of the general procedure 0.25 mmol) came out at 54%.
